The data set in a line: general procedure: solution-phase peptide synthesis; DEPC/DIEA; HATU/DIEA. As to conditions: for conjugation yield: conjugation step.
[1] abbreviates: late stage modification step, 210 nm.
The mark [2] stands for this setting: late stage modification step, 254 nm.

Substance “4-((S)-2-((S)-2-(6-(2,5-dioxo-2,5-dihydro-1H-pyrrol-1-yl)hexanamido)-3-methylbutanamido)-5-ureidopentanamido)benzyl (4-((3R,4S,7S,10S)-4-((S)-sec-butyl)-7,1-diisopropyl-3-(2-((S)-2-((1R,2R)-1-methoxy-2-methyl-3-oxo-3-(((S)-2-phenyl-1-(thiazol-2-yl)ethyl)amino)propyl)pyrrolidin-1-yl)-2-oxoethyl)-5,111-dimethyl-6,9-dioxo-2-oxa-5,8,11-triazatridecan-13-yl)phenyl)(methyl)carbamate 2,2,2-trifluoroacetate” came in with a conjugation yield of 54%.

In turn, “((2R,3R)-3-((S)-1-((3R,4S,5S)-4-((S)-2-((S)-2-((4-(6-(2,5-dioxo-2,5-dihydro-1H-pyrrol-1-yl)-N-methylhexanamido)phenethyl)(methyl)amino)-3-methylbutanamido)-N,3-dimethylbutanamido)-3-methoxy-5-methylheptanoyl)pyrrolidin-2-yl)-3-methoxy-2-methylpropanoyl)-L-phenylalanine 2,2,2-trifluoroacetate” returned a conjugation yield of 62%.

With “((2R,3R)-3-((S)-1-((3R,4S,5S)-4-((S)-2-((S)-2-((4-((S)-2-((S)-2-(6-(2,5-dioxo-2,5-dihydro-1H-pyrrol-1-yl)hexanamido)-3-methylbutanamido)-5-ureidopentanamido)phenethyl)(methyl)amino)-3-methylbutanamido)-N,3-dimethylbutanamido)-3-methoxy-5-methylheptanoyl)pyrrolidin-2-yl)-3-methoxy-2-methylpropanoyl)-L-phenylalanine 2,2,2-trifluoroacetate”, the conjugation yield is 36%.

In turn, “((2R,3R)-3-((S)-1-((3R,4S,5S)-4-((S)-2-((S)-2-((4-((S)-2-((S)-2-(6-(2,5-dioxo-2,5-dihydro-1H-pyrrol-1-yl)hexanamido)-3-methylbutanamido)-N-methyl-5-ureidopentanamido)phenethyl)(methyl)amino)-3-methylbutanamido)-N,3-dimethylbutanamido)-3-methoxy-5-methylheptanoyl)pyrrolidin-2-yl)-3-methoxy-2-methylpropanoyl)-L-phenylalanine 2,2,2-trifluoroacetate” returned a conjugation yield of 24%.

“((2R,3R)-3-((S)-1-((3R,4S,5S)-4-((S)-2-((S)-2-((4-aminophenethyl)(methyl)amino)-3-methylbutanamido)-N,3-dimethylbutanamido)-3-methoxy-5-methylheptanoyl)pyrrolidin-2-yl)-3-methoxy-2-methylpropanoyl)-L-phenylalanine 2,2,2-trifluoroacetate”: for the setting “late stage modification step”, the step yield came out at 66%. The “final HPLC purity” value (late stage modification step, 220 nm) turned out to be 100%.

In turn, “(S)-2-((2R,3R)-3-((S)-1-((3R,4S,5S)-4-((S)-2-((S)-2-((3-aminobenzyl) (methyl)amino)-3-methylbutanamido)-N,3-dimethylbutanamido)-3-methoxy-5-methylheptanoyl)pyrrolidin-2-yl)-3-methoxy-2-methylpropanamido)-3-phenylpropanoic acid” returned a step yield (late stage modification step) of 20%. For the same substance, under setting [1], the “final HPLC purity” value is 92.5%.

In turn, “(S)-2-((2R,3R)-3-((S)-1-((3R,4S,5S)-4-((S)-2-((S)-2-((3-aminopropyl)(methyl)amino)-3-methylbutanamido)-N,3-dimethylbutanamido)-3-methoxy-5-methylheptanoyl) pyrrolidin-2-yl)-3-methoxy-2-methylpropanamido)-3-phenylpropanoic acid” yielded a step yield (late stage modification step) of 21%. Also, the “final HPLC purity” value under setting [1] is given as 96.83%.

As to “(S)-2-((2R,3R)-3-((S)-1-((3R,4S,5S)-4-((S)—N,3-dimethyl-2-((S)-3-methyl-2-(methyl(4-(methylamino)phenethyl)amino)butanamido)butanamido)-3-methoxy-5-methyl heptanoyl)pyrrolidin-2-yl)-3-methoxy-2-methylpropanamido)-3-phenylpropanoic acid”, the step yield (late stage modification step) was 20%. In addition, the “final HPLC purity” value under setting [1] is 90.9%.

Under “late stage modification step”, “(S)-2-((2R,3R)-3-((S)-1-((3R,4S,5S)-4-((S)—N,3-dimethyl-2-((S)-3-methyl-2-(methyl(pyridin-4-ylmethyl)amino)butanamido)butanamido)-3-methoxy-5-methylheptanoyl)pyrrolidin-2-yl)-3-methoxy-2-methylpropanamido)-3-phenylpropanoic acid” displayed a step yield of 20%. Besides, under setting [1], the “final HPLC purity” value is 89.1%.

In the case of “(S)-2-((S)-2-((3-aminopropyl)(methyl)amino)-3-methylbutanamido)-N-((3R,4S,5S)-3-methoxy-1-((S)-2-((1R,2R)-1-methoxy-2-methyl-3-oxo-3-(((S)-2-phenyl-1-(thiazol-2-yl)ethyl)amino)propyl)pyrrolidin-1-yl)-5-methyl-1-oxoheptan-4-yl)-N,3-dimethylbutanamide, bis trifluoroacetic acid”, for the setting “late stage modification step”, the step yield is 25%. Moreover, under setting [2], the “final purity (method not given)” value was 93.7%.

Consider “(S)-2-((S)-2-((4-aminobenzyl)(methyl)amino)-3-methylbutanamido)-N-((3R,4S,5S)-3-methoxy-1-((S)-2-((1R,2R)-1-methoxy-2-methyl-3-oxo-3-(((S)-2-phenyl-1-(thiazol-2-yl)ethyl)amino)propyl)pyrrolidin-1-yl)-5-methyl-1-oxoheptan-4-yl)-N,3-dimethylbutanamide, trifluoroacetic Acid”, for which, under “late stage modification step, LC/MS/UV, 254 nm”, the “crude purity (method not given)” value stood at 93.2%.

For “(S)—N-((3R,4S,5S)-3-methoxy-1-((S)-2-((1R,2R)-1-methoxy-2-methyl-3-oxo-3-(((S)-2-phenyl-1-(thiazol-2-yl)ethyl)amino)propyl)pyrrolidin-1-yl)-5-methyl-1-oxoheptan-4-yl)-N,3-dimethyl-2-((S)-3-methyl-2-(methyl(4-(methylamino)phenethyl)amino) butanamido)butanamide”, the step yield (late stage modification step) worked out at 39%. Moreover, under setting [2], the “final HPLC purity” value turned out to be 93.68%.

“Methyl ((2R,3R)-3-((S)-1-((3R,4S,5S)-4-((S)-2-((S)-2-((4-aminophenethyl)(methyl)amino)-3-methylbutanamido)-N,3-dimethylbutanamido)-3-methoxy-5-methylheptanoyl)pyrrolidin-2-yl)-3-methoxy-2-methylpropanoyl)-L-phenylalaninate” gave a step yield (coupling step) of 45%. Also, under “coupling step, 220 nm”, the “final HPLC purity” value is recorded as 95.3%.

As to “N—((S)-1-(((S)-1-((4-((3R,4S,7S,10S)-4-((S)-sec-butyl)-7,10-diisopropyl-3-(2-((S)-2-((1R,2R)-1-methoxy-2-methyl-3-oxo-3-(((S)-2-phenyl-1-(thiazol-2-yl)ethyl)amino)propyl)pyrrolidin-1-yl)-2-oxoethyl)-5,11-dimethyl-6,9-dioxo-2-oxa-5,8,11-triazatridecan-13-yl)phenyl)amino)-1-oxo-5-ureidopentan-2-yl)amino)-3-methyl-1-oxobutan-2-yl)-6-(2,5-dioxo-2,5-dihydro-1H-pyrrol-1-yl)hexanamide 2,2,2-trifluoroacetate”, the conjugation yield is recorded as 70%.

Turning to “methyl ((2R,3R)-3-((S)-1-((3R,4S,5S)-4-((S)-2-((S)-2-((3-(6-(2,5-dioxo-2,5-dihydro-1H-pyrrol-1-yl)hexanamido)benzyl)(methyl)amino)-3-methylbutanamido)-N,3-dimethylbutanamido)-3-methoxy-5-methylheptanoyl)pyrrolidin-2-yl)-3-methoxy-2-methylpropanoyl)-L-phenylalaninate 2,2,2-trifluoroacetate”, the conjugation yield stood at 50%.

With “methyl ((2R,3R)-3-((S)-1-((3R,4S,5S)-4-((S)-2-((S)-2-((3-((((4-((S)-2-((S)-2-(6-(2,5-dioxo-2,5-dihydro-1H-pyrrol-1-yl)hexanamido)-3-methylbutanamido)-5-ureidopentanamido)benzyl)oxy)carbonyl)amino)benzyl)(methyl)amino)-3-methylbutanamido)-N,3-dimethylbutanamido)-3-methoxy-5-methylheptanoyl)pyrrolidin-2-yl)-3-methoxy-2-methylpropanoyl)-L-phenylalaninate 2,2,2-trifluoroacetate”, the conjugation yield is listed as 48%.

Consider “methyl ((2R,3R)-3-((S)-1-((3R,4S,5S)-4-((S)-2-((S)-2-((4-(6-(2,5-dioxo-2,5-dihydro-1H-pyrrol-1-yl)-N-methylhexanamido)phenethyl)(methyl)amino)-3-methylbutanamido)-N,3-dimethylbutanamido)-3-methoxy-5-methylheptanoyl)pyrrolidin-2-yl)-3-methoxy-2-methylpropanoyl)-L-phenylalaninate 2,2,2-trifluoroacetate”, for which the conjugation yield came out at 16%.

Consider “methyl ((2R,3R)-3-((S)-1-((3R,4S,5S)-4-((S)-2-((S)-2-((4-((((4-((S)-2-((S)-2-(6-(2,5-dioxo-2,5-dihydro-1H-pyrrol-1-yl)hexanamido)-3-methylbutanamido)-5-ureidopentanamido)benzyl)oxy)carbonyl)(methyl)amino)phenethyl)(methyl) amino)-3-methylbutanamido)-N,3-dimethylbutanamido)-3-methoxy-5-methylheptanoyl)pyrrolidin-2-yl)-3-methoxy-2-methylpropanoyl)-L-phenylalaninate 2,2,2-trifluoroacetate”, for which the conjugation yield is listed as 70%.

Substance “methyl ((2R,3R)-3-((S)-1-((3R,4S,5S)-4-((S)-2-((S)-2-((4-((S)-2-((S)-2-(6-(2,5-dioxo-2,5-dihydro-1H-pyrrol-1-yl)hexanamido)-3-methylbutanamido)-5-ureidopentanamido)phenethyl)(methyl)amino)-3-methylbutanamido)-N,3-dimethylbutanamido)-3-methoxy-5-methylheptanoyl)pyrrolidin-2-yl)-3-methoxy-2-methylpropanoyl)-L-phenylalaninate 2,2,2-trifluoroacetate” showed a conjugation yield of 13%.

In the case of “methyl (S)-2-((2R,3R)-3-((S)-1-((3R,4S,5S)-4-((S)-2-((((9H-fluoren-9-yl)methoxy)carbonyl)amino)-N,3-dimethylbutanamido)-3-methoxy-5-methylheptanoyl)pyrrolidin-2-yl)-3-methoxy-2-methylpropanamido)-3-phenylpropanoate”, the step yield (coupling step) stood at 34%.
